Amino acid sequences for entries named in this document (tags omitted).
UniProt P15056, whole entry G466V: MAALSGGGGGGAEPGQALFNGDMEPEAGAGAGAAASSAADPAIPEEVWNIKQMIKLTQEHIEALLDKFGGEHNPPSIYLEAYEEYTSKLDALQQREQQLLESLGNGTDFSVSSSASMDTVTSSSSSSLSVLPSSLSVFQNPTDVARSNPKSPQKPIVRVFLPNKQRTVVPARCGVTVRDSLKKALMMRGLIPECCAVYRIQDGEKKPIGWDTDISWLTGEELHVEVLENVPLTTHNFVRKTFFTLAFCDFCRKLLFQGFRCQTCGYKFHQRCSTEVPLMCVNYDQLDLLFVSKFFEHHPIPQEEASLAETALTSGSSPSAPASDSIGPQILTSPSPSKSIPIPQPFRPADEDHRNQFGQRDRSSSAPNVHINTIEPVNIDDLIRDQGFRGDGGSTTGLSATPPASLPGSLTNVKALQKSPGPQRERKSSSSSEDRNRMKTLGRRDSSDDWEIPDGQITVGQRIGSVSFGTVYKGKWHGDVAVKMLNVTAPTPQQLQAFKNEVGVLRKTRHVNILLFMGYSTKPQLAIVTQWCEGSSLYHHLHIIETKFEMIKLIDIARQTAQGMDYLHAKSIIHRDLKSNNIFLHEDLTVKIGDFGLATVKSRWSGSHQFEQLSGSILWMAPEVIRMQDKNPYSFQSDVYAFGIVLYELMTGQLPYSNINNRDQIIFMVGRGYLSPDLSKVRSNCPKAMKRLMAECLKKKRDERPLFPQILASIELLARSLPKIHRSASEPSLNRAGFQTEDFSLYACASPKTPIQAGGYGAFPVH
UniProt P15056, whole entry V600E: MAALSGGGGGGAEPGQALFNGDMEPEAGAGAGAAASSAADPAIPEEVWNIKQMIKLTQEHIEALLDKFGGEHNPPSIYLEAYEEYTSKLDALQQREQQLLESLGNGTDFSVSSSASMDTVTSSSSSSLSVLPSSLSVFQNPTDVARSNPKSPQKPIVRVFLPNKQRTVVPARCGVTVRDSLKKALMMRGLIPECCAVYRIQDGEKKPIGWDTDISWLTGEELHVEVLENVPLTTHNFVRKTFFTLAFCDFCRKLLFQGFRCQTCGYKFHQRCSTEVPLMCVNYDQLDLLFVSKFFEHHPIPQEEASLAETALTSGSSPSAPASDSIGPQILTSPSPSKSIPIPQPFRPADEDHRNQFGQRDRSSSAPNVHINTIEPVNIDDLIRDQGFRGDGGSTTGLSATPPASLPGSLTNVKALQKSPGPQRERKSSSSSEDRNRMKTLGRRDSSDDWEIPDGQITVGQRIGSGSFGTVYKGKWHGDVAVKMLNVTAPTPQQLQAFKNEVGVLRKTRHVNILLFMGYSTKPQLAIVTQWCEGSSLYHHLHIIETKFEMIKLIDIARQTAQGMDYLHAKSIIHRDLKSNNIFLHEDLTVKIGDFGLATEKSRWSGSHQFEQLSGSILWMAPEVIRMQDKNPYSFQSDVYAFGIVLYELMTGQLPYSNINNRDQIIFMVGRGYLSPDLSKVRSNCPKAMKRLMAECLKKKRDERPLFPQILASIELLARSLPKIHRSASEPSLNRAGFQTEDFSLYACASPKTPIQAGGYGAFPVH

In patent publication US12180193B2, “Accelerating fibrosarcoma protein degrading compounds and associated methods of use” (Arvinas Operations, Inc., priority 2020, dated 2024):

Assays:
BRAF V600E = BRAF V600E (Homo sapiens, UniProt P15056, V600E); experiment: Cellular assay of target protein degradation, T-Rex 293 cells stably transfected with HA-BRAF_V600E (HA immunofluorescence, high content imaging); conditions: T-Rex 293 HA-BRAF V600E
Protocol: (§1) Protocol for a cellular assay of target protein degradation (T-Rex 293 cells). T-Rex 293 cells were purchased from Invitrogen (#R71007), and stably transfected with a pcDNA4/TO_HA-BRAF_V600E construct, using 400 ug Zeocin for selection. V600e cells are plated in Dulbecco's Modified Eagle Medium (DMEM; Gibco #11965118) containing 10% fetal bovine serum (FBS; Gibco #16000044) and 1 ng/mL doxycycline (Selleckchem #4163) at a density of 5,000 cells/well in 50 μl on poly-D-lysine (PDL) coated, black clear bottom 96-well plates (Corning #354640) and incubated for 24 hours at 37° C. with 5% C02. The following day 50 ul of tested compound was added at 2x concentration in DMEM with a final concentration ranging from 1 μM to 0.1 nM in 0.1% dimethylsulfoxide (DMSO), and incubated for 24 hours at 37° C. with 5% CO2. At the end of the experimental treatment, the media was flicked off and cells washed once with phosphate-buffered saline (PBS)++ (PBS with CaCl and MgCl) and gently replacing with 200 μl PBS++ per well. […] Plate was wash three times with 200 uL PBS++, and imaged on a high content reader (ImageXpress Micro XLS, Molecular Devices).
(§2) The concentration of exemplary compound that leads to half maximal degradation (DC50) as well as the maximum degradation observed (Dmax, conventionally expressed as a percentage of control), which are below in Table 2 for the exemplary compounds of Table 1.

BRAF G466V = BRAF G466V (Homo sapiens, UniProt P15056, G466V); experiment: Cellular assay of target protein degradation, T-Rex 293 cells stably transfected with HA-BRAF G466V (HA immunofluorescence, high content imaging); conditions: T-Rex 293 HA-BRAF G466V
Protocol: as §1, with “a pcDNA4/TO_HA-BRAF G466V” for “a pcDNA4/TO_HA-BRAF_V600E”, “selection. G466V” for “selection. V600e”, “and 0.75” for “and 1”, “5% CO2.” for “5% C02.”, “from 30 nM” for “from 1 μM”, “to 3 pM” for “to 0.1 nM”
as §2

**Q.** What does the source list for `O=C1CCC(N2Cc3cc(N4CCC(CN5CC(Cc6ccc(-c7cnc8[nH]cc(C(=O)c9c(F)ccc(NS(=O)(=O)N%10CC[C@@H](F)C%10)c9F)c8c7)cc6)C5)CC4)ccc3C2=O)C(=O)N1` (stereo partly shown)?
**A.** BRaf V600E DMax (BRAF V600E; maximum degradation observed): B (35 < B < 70); DC50 (BRAF V600E; read-out: BRaf V600E DC50, half maximal degradation): 50 to 500 nM; BRaf G466V DMax (BRAF G466V; maximum degradation observed): A (A ≥ 70); DC50 (BRAF G466V; read-out: BRaf G466V DC50, half maximal degradation): 1 to 10 nM

The match of structure and compound is tentative.
